Test results: PMC5095040
Results are given in words; binding and its absence hold for the method and conditions named. In cells and extracts the contact can be indirect. Some binding calls cover weakened binding; strength is not graded here.

The chains behind the UniProt entries cited, without tags or fusion partners.
UniProt P35222: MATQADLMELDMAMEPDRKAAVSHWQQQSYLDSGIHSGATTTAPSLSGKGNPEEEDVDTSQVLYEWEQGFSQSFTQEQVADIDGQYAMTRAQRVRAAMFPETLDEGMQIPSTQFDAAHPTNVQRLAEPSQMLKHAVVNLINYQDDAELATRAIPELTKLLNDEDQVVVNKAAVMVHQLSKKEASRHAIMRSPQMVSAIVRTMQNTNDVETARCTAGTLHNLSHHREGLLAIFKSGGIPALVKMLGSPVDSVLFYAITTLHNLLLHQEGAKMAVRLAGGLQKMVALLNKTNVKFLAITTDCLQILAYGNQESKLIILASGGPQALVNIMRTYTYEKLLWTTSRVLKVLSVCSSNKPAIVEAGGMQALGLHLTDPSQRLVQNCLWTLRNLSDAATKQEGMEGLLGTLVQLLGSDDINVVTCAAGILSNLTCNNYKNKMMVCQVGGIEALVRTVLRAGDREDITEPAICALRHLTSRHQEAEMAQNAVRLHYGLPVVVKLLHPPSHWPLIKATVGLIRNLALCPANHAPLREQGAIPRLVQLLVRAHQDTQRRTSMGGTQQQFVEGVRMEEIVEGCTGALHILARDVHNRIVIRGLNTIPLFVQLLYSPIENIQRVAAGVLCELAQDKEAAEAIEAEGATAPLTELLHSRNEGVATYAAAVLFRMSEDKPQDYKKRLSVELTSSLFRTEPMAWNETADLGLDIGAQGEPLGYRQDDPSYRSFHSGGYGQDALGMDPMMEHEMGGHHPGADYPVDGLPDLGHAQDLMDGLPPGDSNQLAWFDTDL

Assays:
[1] = biological target: endogenous β-catenin (human (endogenous in HeLa and SKBR-3)) (UniProt P35222); experiment: co-IP; lysates of SKBR-3 cells, endogenous proteins; immunoprecipitation with control IgG, rabbit anti-β-catenin or mouse anti-MUC16, reciprocal; lysis buffer 20 mM Tris-HCl pH 7.4, 150 mM NaCl, 1% Triton X-100; antibodies overnight at 4°C
[2] = biological target: endogenous MUC16 (human (endogenous in SKBR-3)) (UniProt Q8WXI7); experiment: as above

Substance | binding [1] | binding [2]
endogenous MUC16 (from UniProt Q8WXI7 1-14507) | binds | 
endogenous β-catenin (from UniProt P35222 1-781) |  | binds
